Assay results as given in the supplement of paper PMC5949888.
Most values lie at the floor of the assay. Slopes are relative: functional sequences can read slightly below zero.

Test system: Saccharomyces cerevisiae PS128 hsf1 delta, HSF1(1-493) fusion
Assay: growth estimate (transactivation domain function in HSF1 fusion, heat-shock survival) (a.u. (slope of normalised read count over time)); higher = stronger growth at 37°C, i.e. more transactivation activity
Conditions: library: random library

Substance	growth estimate
NVSPATRRDLKPLFMVGVIH	< -0.25
NVTFAESSGGNHVEKHCHLP	< -0.25
NVTRASPGTCEVGGPGRIIQ	-0.241
NVTYGSARRGLRHGWWKPQG	< -0.25
NVYCEGTRPTILISAGSPVG	< -0.25
NWAWGAS	< -0.25
NWDSRNWLSSPTRV	< -0.25
NWECNSTWWYLGRNSFPAGN	< -0.25
NWESSVI	< -0.25
NWGGSVGVPASVI	< -0.25
NWN	< -0.25
NWPLTLLGHSPRQGSWITPS	< -0.25
NWRIVVILGGKGCLRPTANC	< -0.25
NWRTHGGDIGATL	< -0.25
NWVAA	< -0.25
NWWAASCHSLV	< -0.25
NYAHIRSRSYRSERSTIFTA	< -0.25
NYAPS	< -0.25
NYFHVSSCVVEITDSVSASS	< -0.25
NYFLAMTNRICQ	< -0.25
NYGPAADVLVKIGPNLG	< -0.25
NYGPTGSESRLAV	< -0.25
NYQVGIGFGIALIGQLNAGK	< -0.25
NYRLEGHENAVSKCPVITAA	< -0.25
NYRVIDFTYIATPSDILVAT	< -0.25

Substance	growth estimate
NYSLATLAMEGSFSVPCWLR	< -0.25
NYSQNEEGGGSTAGARQAMG	< -0.25
PACDMPATSNLVCFIATVVR	< -0.25
PACG	< -0.25
PACSAFVTYPQ	< -0.25
PACTPRTAVGTFASRTTRTH	< -0.25
PAD	< -0.25
PAEVSFNSQAEFSPREGT	< -0.25
PAEVTLGSVALGLGYTS	< -0.25
PAFTSLCIYCISC	< -0.25
PAGRIVKVARKLTWCLLL	< -0.25
PAIE	< -0.25
PAIGGDRSAIGMQKLSKTSL	< -0.25
PAKTELAQRL	< -0.25
PALEMWLGARIGPSPCQRSV	-0.246
PALGGLLTLVERRMPYPERI	-0.246
PALRHWK	< -0.25
PAMYPPTGTAPPSNFKWVFD	-0.232
PAQLADPLVTLVMIYQDHPP	< -0.25
PARFVVDTLH	< -0.25
PARIKRYSRVVWPGNSLNTP	< -0.25
PARRSSIYQITNVSRG	< -0.25
PARSDGKYSCSSTKLLDTRA	< -0.25
PARTGLRTNWAVMGTTSAGG	< -0.25
PATVIYGAGVNGGVAVNQES	< -0.25

Substance	growth estimate
PAYKLTVVSASAAHKESLYS	< -0.25
PCCSIL	< -0.25
PCDAADPSGNLGFLLAHIGL	< -0.25
PCE	-0.241
PCFHVSATGGAHRLRRYAAQ	< -0.25
PCIASVHSRQSSAGQRRITR	< -0.25
PCIGSFSSDGG	< -0.25
PCP	< -0.25
PCRHRFLDGSASRDLPEISA	< -0.25
PCSQVGLLTYLFHRERTSTD	< -0.25
PCSSNGGQFCTTASVLLRLH	< -0.25
PCTFAGLYGGIRKRSGAEVA	< -0.25
PCTSQLVCDSDYRLNAS	< -0.25
PCTV	< -0.25
PCTVQGR	< -0.25
PCV	< -0.25
PCVRGEGICY	< -0.25
PCVRGNCSPLKRMTTLSV	-0.246
PCYIRVPRCGFNLTGEYIPC	< -0.25
PCYVDSNRLHPVFDNTSIKV	< -0.25
PDAPDIEAARKSKSGVAVEN	< -0.25
PDAYGFRSRRGRA	< -0.25
PDDINVRLA	< -0.25
PDDL	< -0.25
PDDSALQRVVPKTMVQQRQR	< -0.25

Retrieved one by one from above, 4 records:
Substance	growth estimate
PARTGLRTNWAVMGTTSAGG	< -0.25
NYFLAMTNRICQ	< -0.25
PDDSALQRVVPKTMVQQRQR	< -0.25
NVTYGSARRGLRHGWWKPQG	< -0.25

(further entries)

Substance	growth estimate
PDDWHAWPARKIGLKWGRLK	-0.208
PDFYRRWALEIANQLTNVA	< -0.25
PDGAKAVAWDVVRNIRTSQE	< -0.25
PDGRHG	< -0.25
PDGRLHVPDDRV	< -0.25
PDGSSAQTYYANVDPATSLA	< -0.25
PDH	< -0.25
PDIMESTRLETKTVAPLSRH	< -0.25
PDKAEIVAHCRWVHASST	-0.179
PDKSGGNRGRDAYDLEHTCG	< -0.25
PDLCRGSVLPDHGYGPL	< -0.25
PDMSSVNNVLRLRLPLPTNI	< -0.25
PDNSTH	-0.25
PDPRNLRRREAVAACKC	< -0.25
PDRRGELCKPQKLSICRLRI	< -0.25
PDRSRIFWEDPFSVIPAGYY	-0.217
PDS	< -0.25
PDSET	< -0.25
PDSNPVVI	< -0.25
PDSRSEDEAGTFLYWTQFRP	< -0.25
PDVRVPSYRYKAS	< -0.25
PDWRIEKKCGHRAFPKCPYC	< -0.25
PECNREVVYGVFSATGLANH	< -0.25
PEDVNTQDTSRH	-0.0269
PEE	< -0.25

Substance	growth estimate
PEELDTCGAVGSDYKVFGGQ	< -0.25
PEGLIRLRFSEGASRTQPTC	< -0.25
PEGPRWHLSDFQGA	< -0.25
PEGRSYGIITGTPRLAPLGS	< -0.25
PEGVYSSCTLRLT	< -0.25
PEHLGNPHAQI	< -0.25
PEHRQWWHRRGLSLERYADR	< -0.25
PEIAPWLGLYSDYHTYCLGC	< -0.25
PEKGPDP	< -0.25
PEKRGEERPHRRHLSPARYQ	< -0.25
PELRLRDKQVTRPSRVS	< -0.25
PENAGRR	< -0.25
PEPIRYSHELR	< -0.25
PEPMGALCTCLGAPSH	< -0.25
PEPWVVLLGTTLDSDSTSPK	< -0.25
PERLSRVGSSSATALSESSG	< -0.25
PESVINIDGTGEKFI	< -0.25
PETSSRCARVGGKRNHLDCK	< -0.25
PEYFVAFANPINSGGGGCGS	< -0.25
PFDRLT	< -0.25
PFGCASLRWLSHRGYEEPPT	< -0.25
PFKVRTSVAVEQLRHELLSA	< -0.25
PFRGRFFGPRTGWPRS	< -0.25
PFSPHIHSDLDVVGGPA	< -0.25
PFSRDPRAMRPSRKVHAELG	< -0.25

Substance	growth estimate
PFTSG	< -0.25
PGDCVCLLKSIALPAG	< -0.25
PGDRPIG	< -0.25
PGDSLRK	< -0.25
PGDTRVL	< -0.25
PGEFGVDLGCLFCSSTTRAL	< -0.25
PGEIIFSDPSGPSECVIMRK	< -0.25
PGFICLTGSRDYCDSIHPAF	< -0.25
PGGPSEKNGITWNDTFHRQS	< -0.25
PGGS	< -0.25
PGGTRSVQCGLYSGIGRTNG	< -0.25
PGHNYRGVVSPRPIVRKMRA	< -0.25
PGHQSPSSLVCTGRSG	< -0.25
PGHRGYEGAGDVTSIVVLMR	< -0.25
PGKANDFRAAGTQITVGRI	< -0.25
PGKLLATGNRTQALIDPGRA	< -0.25
PGLASSLTVQ	< -0.25
PGLESTS	< -0.25
PGLHNGETFRSWL	< -0.25
PGLRSFRCWCQRLEIPVVR	< -0.25
PGPASRPCQAKWLPPCRQIP	< -0.25
PGPMRKWRRCVSRAWALRRC	-0.245
PGPRGVTSHDRLIGKYTPQL	< -0.25
PGPTRTQCDVSNKRQSTKRI	< -0.25
PGQDMVKFRLLPCSYVLCRR	< -0.25

3 entries from above, with each value named.
NYSQNEEGGGSTAGARQAMG
  growth estimate = < -0.25
PDIMESTRLETKTVAPLSRH
  growth estimate = < -0.25
PEPMGALCTCLGAPSH
  growth estimate = < -0.25

The list continues.

Substance	growth estimate
PGRDCFAEDT	< -0.25
PGRPTRWQCEV	< -0.25
PGRYVCQTMGS	< -0.25
PGSAARFLGIPPLSGGLLRS	< -0.25
PGSATAGA	< -0.25
PGSCYNCVATYPGG	< -0.25
PGSHRSPRDLSPVMGCVRPV	< -0.25
PGSNQGIEAMSRVLVPT	< -0.25
PGSRGGPYELQHRLWQSSRF	< -0.25
PGSSRLVAVHGHRFERLVRA	< -0.25
PGSTQTHLDPGLRIITPLLP	< -0.25
PGTGGYTRDNFFGDPFLIAF	< -0.25
PGTIHIAKS	< -0.25
PGTS	< -0.25
PGTVRRPKRGRGGTTPTCIG	< -0.25
PGVIDCQGLWPFIN	< -0.25
PGVIGSAQ	< -0.25
PGVPATRLRHSPVPLSRGVR	< -0.25
PGVVG	< -0.25
PGVVQGGCISYGMRS	< -0.25
PGWFRVVIQ	< -0.25
PGWLSHRMQGYVHR	< -0.25
PGYFNSTVPCYVSPGIHHGL	< -0.25
PHCISRASVRNIHRPLDRVV	0.0112
PHCSIVSECQLEVRNQSITF	< -0.25

Substance	growth estimate
PHEWNKDM	< -0.25
PHFNRRDWMSGAPMVQGRDV	< -0.25
PHFVN	< -0.25
PHIG	< -0.25
PHIRSRHVLVCRLLRTRDKD	< -0.25
PHISPGSRT	< -0.25
PHKQCWESRTQNTNCLNGRA	< -0.25
PHSAQRGE	< -0.25
PHSPLGMSPFFVSVPLVTCE	< -0.25
PHSVTGPNICGSPSQRGLSV	< -0.25
PHTFPCHLCLDWNPGAVAYT	< -0.25
PHVEGVPLSSGLSTDL	< -0.25
PHWT	< -0.25
PHWTMVRFSIYAWRDWFRAS	< -0.25
PIALAEVSVKALLIFWLLDS	-0.245
PIASQFLHVVSLRTWDSGEP	< -0.25
PIAVQGRGLQRHSRGGTLQV	< -0.25
PICSRSSSRWRTGSLTSVEY	< -0.25
PIDIREAVRIVKQVAFLNIS	< -0.25
PIEELQV	< -0.25
